The values that follow come from US8691866.

Substitutions are numbered along the chain they refer to. The exact form of at least one protein or probe is not confirmed. At least one result comes from cells or an extract, where the contact may be indirect. For some of these results: No signal at the amounts used counts as a negative. Protein sequences can lack the tags named with them.

Data set [1] addresses T1, IRP1 S138E (phosphomimetic) (UniProt P21399).
T1 sequence (looked up, limits assumed): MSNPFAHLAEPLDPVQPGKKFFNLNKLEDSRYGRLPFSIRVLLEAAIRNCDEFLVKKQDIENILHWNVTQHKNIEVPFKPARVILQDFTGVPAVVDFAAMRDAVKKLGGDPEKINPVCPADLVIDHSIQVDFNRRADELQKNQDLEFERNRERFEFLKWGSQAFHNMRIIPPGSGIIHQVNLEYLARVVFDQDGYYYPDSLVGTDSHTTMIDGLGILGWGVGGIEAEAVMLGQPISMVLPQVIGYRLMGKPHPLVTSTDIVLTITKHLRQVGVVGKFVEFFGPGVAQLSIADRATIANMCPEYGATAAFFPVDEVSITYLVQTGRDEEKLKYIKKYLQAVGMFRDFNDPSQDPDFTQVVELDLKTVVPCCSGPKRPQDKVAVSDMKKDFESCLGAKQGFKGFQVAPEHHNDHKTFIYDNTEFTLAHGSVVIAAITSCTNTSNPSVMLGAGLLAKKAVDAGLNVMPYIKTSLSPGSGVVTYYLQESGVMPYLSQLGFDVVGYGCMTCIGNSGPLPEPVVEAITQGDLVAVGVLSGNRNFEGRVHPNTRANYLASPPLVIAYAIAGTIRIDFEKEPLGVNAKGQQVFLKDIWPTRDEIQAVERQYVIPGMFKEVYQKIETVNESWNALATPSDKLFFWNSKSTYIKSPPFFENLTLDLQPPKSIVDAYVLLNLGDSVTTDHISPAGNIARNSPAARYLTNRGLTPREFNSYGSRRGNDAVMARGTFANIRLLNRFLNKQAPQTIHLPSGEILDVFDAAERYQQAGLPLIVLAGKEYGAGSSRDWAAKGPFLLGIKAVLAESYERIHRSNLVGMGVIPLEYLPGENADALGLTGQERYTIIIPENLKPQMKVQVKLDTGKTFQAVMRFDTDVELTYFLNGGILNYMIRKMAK
Put plainly: pull-down. As to conditions: biotinylated mRNA pull down; fails to dissociate in hypoxia; protein in a lysate after overexpression; protein details: stably expressed in 786-O or IRP1-/- MEFs.

The target in data set [2] is T1, IRP1 S138E (phosphomimetic). Put plainly: EMSA. The settings on record: protein in a lysate after overexpression; protein details: stably expressed in 786-O or IRP1-/- MEFs.
In data set [3] the target is T2, IRP1 (iron regulatory protein 1, ACO1) (UniProt P21399).
T2 sequence (looked up, limits assumed): T1 sequence (looked up, limits assumed) with E138S
Put plainly: EMSA. The settings on record: supershift with IRP1 antibody; enhanced by compounds 40, 41, 76, 77 and PGJ2, decreased by hypoxia; printed SEQ 17 is the IRE core, probe was nt 50-100 of 5'-UTR; protein in an extract; protein details: endogenous, 786-O cell lysate. For orientation: A gel shift assay detects complexes by their altered migration in electrophoresis.

The target of data set [4] is T3, IRP2 (iron regulatory protein 2, IREB2) (UniProt P48200).
T3 sequence (looked up, limits assumed): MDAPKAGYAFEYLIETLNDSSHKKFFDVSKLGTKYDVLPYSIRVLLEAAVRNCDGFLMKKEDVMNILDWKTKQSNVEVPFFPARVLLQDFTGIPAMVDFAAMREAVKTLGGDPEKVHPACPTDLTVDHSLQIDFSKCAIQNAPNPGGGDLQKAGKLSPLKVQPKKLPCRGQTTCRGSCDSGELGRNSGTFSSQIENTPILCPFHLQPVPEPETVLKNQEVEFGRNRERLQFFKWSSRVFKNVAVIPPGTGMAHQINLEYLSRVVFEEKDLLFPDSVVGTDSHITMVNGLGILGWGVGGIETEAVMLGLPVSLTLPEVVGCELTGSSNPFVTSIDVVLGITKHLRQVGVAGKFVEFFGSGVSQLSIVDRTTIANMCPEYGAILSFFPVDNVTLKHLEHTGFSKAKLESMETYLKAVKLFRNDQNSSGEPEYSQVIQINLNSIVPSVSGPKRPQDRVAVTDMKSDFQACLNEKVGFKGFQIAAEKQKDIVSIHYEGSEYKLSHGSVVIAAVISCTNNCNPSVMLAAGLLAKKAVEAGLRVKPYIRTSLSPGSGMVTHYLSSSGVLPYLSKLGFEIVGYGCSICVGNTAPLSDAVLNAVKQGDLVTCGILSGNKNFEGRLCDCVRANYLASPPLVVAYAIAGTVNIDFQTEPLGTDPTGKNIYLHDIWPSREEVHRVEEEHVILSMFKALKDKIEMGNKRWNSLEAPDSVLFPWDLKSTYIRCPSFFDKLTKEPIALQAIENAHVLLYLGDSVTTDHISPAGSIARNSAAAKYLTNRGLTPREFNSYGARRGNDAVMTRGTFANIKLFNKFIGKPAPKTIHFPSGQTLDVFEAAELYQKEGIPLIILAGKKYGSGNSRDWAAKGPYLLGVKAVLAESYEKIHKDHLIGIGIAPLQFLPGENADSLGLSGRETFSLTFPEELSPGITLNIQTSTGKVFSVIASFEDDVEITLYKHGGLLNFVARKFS
Put plainly: EMSA. The settings on record: no IRP2 supershift, normoxia or hypoxia, with compound 76 or DFO; protein in an extract; protein details: endogenous, 786-O cell lysate.

Turning to “UACAAUCCUCGGCAGUGUCCUGAGACUGUA [HIF-2a 5'-UTR IRE probe (nt 50-100, UTR16)]”, the binding result in data set [1] is on record as “binds”; in data set [2] it was “binds”; in data set [3], “binds”; in data set [4] it was “no binding”.
